Record: PubChem BioAssay AID1259296 (Sanger Institute, 2017)
Purpose: 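Kinase knock-downs that boost killing by anchor drugs in colorectal cancer cells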 (follow-up of hits). Cell system: CAR1 human colorectal cancer cells. Reagent: single siRNA against human genes. Conditions: anchor drugs BYL719 at 1 µM, cetuximab at 5 µg/ml or trametinib at 10 nM, or DMSO vehicle, added a day after transfection. Measured: 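Viability as a fraction of control pool 2 (non-targeting), replicate mean; for every anchor drug, a synergy score comparing combined effect with drug and siRNA individually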. Direction: synergy with BYL719 and synergy with cetuximab and synergy with trametinib: higher = stronger synergy between knock-down and drug; viability, siRNA plus trametinib and viability, siRNA alone (DMSO): higher = more viable cells. Call rule: 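Called active if the synergy score with at least one anchor drug is above 0.10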.
In all, the deposit lists 160 reagents; below is an unselected part. Of all reagents, 45 (28%) got an active call. 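Calls are per single siRNA duplex in CAR1 cells only; how the synergy score is calculated is not stated.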 Reagents against one gene are numbered here. No viability above 1 is reported: the scale is capped. No sequences are given here. Not stated in the record: the amount of reagent, the time to read-out.

| gene | reagent | synergy with BYL719 | synergy with cetuximab | synergy with trametinib | viability, siRNA plus trametinib (fraction of control) | viability, siRNA alone (DMSO) (fraction of control) | Call |
| --- | --- | --- | --- | --- | --- | --- | --- |
| PIM1 | 1 | 0.0237 | -0.0315 | 0.173 | 0.547 | 0.72 | active |
| PIM1 | 2 | -0.0181 | 0.0397 | -0.0541 | 1 | 0.946 | inactive |
| PIM1 | 3 | -0.0486 | 0.035 | 0 | 1 | 1 | inactive |
| PIM1 | 4 | 0.00933 | -0.0357 | 0.0995 | 0.812 | 0.911 | inactive |
| MARK3 | 1 | -0.0673 | -0.136 | -0.115 | 0.967 | 0.851 | inactive |
| MARK3 | 2 | -0.0865 | -0.00884 | 0.0226 | 0.92 | 0.942 | inactive |
| MARK3 | 3 | -0.0403 | -0.0514 | 0.182 | 0.421 | 0.603 | active |
| MARK3 | 4 | 0.105 | -0.0326 | 0.114 | 0.615 | 0.73 | active |
| CHD4 | 1 | -0.0526 | -0.0707 | 0.0031 | 0.704 | 0.707 | inactive |
| CHD4 | 2 | 0.0755 | -0.024 | -0.019 | 0.62 | 0.601 | inactive |
| CHD4 | 3 | -0.0936 | -0.108 | -0.0245 | 0.754 | 0.73 | inactive |
| CHD4 | 4 | -0.0326 | -0.0457 | 0.00724 | 0.929 | 0.936 | inactive |
| EPHA6 | 1 | 0.0435 | -0.0695 | 0.0947 | 0.633 | 0.728 | inactive |
| EPHA6 | 2 | 0.179 | 0.0538 | 0.153 | 0.557 | 0.71 | active |
| EPHA6 | 3 | 0.144 | 0.204 | 0.235 | 0.561 | 0.796 | active |
| EPHA6 | 4 | -0.0263 | 0.0538 | 0.0908 | 0.909 | 1 | inactive |
| SYNCRIP | 1 | 0.131 | 0.00819 | 0.138 | 0.805 | 0.943 | active |
| SYNCRIP | 2 | -0.0473 | -0.0238 | 0.0386 | 0.949 | 0.988 | inactive |
| SYNCRIP | 3 | 0.0981 | -0.0308 | 0.0281 | 0.502 | 0.53 | inactive |
| SYNCRIP | 4 | -0.0478 | -0.0516 | -0.0351 | 0.866 | 0.831 | inactive |
| MAPKAPK2 | 1 | 0.036 | -0.0791 | -0.0801 | 0.941 | 0.861 | inactive |
| MAPKAPK2 | 2 | -0.122 | -0.0439 | 0.0216 | 0.978 | 1 | inactive |
| MAPKAPK2 | 3 | -0.0544 | -0.0144 | -0.0475 | 1 | 0.952 | inactive |
| MAPKAPK2 | 4 | -0.0572 | -0.107 | -0.0837 | 1 | 0.916 | inactive |
| AK2 | 1 | -0.0114 | -0.0439 | 0.0768 | 0.923 | 1 | inactive |
| AK2 | 2 | -0.0794 | -0.14 | -0.00713 | 0.897 | 0.889 | inactive |
| AK2 | 3 | -0.122 | -0.0439 | 0 | 1 | 1 | inactive |
| AK2 | 4 | 0.0202 | 0.061 | 0.158 | 0.774 | 0.932 | active |
| STK36 | 1 | -0.182 | -0.108 | -0.0205 | 0.803 | 0.783 | inactive |
| STK36 | 2 | -0.115 | -0.0395 | -0.0215 | 0.906 | 0.884 | inactive |
| STK36 | 3 | 0.00137 | -0.0602 | 0.0632 | 0.844 | 0.907 | inactive |
| STK36 | 4 | -0.0332 | -0.108 | 0.0178 | 0.775 | 0.793 | inactive |
| CDKN2D | 1 | -0.118 | 0.0564 | 0.0687 | 0.722 | 0.791 | inactive |
| CDKN2D | 2 | -0.0169 | -0.101 | 0.161 | 0.693 | 0.854 | active |
| CDKN2D | 3 | -0.185 | -0.161 | -0.113 | 0.99 | 0.877 | inactive |
| CDKN2D | 4 | 0.105 | -0.00494 | 0.147 | 0.792 | 0.939 | active |

In a second layout: entries from further up
gene,reagent,synergy with BYL719,synergy with cetuximab,synergy with trametinib,"viability, siRNA plus trametinib (fraction of control)","viability, siRNA alone (DMSO) (fraction of control)",Call
MARK3,4,0.105,-0.0326,0.114,0.615,0.73,active
CHD4,1,-0.0526,-0.0707,0.0031,0.704,0.707,inactive
CHD4,2,0.0755,-0.024,-0.019,0.62,0.601,inactive
CHD4,3,-0.0936,-0.108,-0.0245,0.754,0.73,inactive
